Publication PMC4359025
Results are given in words; binding and its absence hold for the method and conditions named. In cells and extracts the contact can be indirect. Some entries that bind do so weakly or less than the wild type. Sequences can lack the tags named with a protein.

Biological target: T1, Par-6 fused with Flag epitope (Par6::Flag) (Drosophila (fly)) (UniProt O97111)
T1 sequence: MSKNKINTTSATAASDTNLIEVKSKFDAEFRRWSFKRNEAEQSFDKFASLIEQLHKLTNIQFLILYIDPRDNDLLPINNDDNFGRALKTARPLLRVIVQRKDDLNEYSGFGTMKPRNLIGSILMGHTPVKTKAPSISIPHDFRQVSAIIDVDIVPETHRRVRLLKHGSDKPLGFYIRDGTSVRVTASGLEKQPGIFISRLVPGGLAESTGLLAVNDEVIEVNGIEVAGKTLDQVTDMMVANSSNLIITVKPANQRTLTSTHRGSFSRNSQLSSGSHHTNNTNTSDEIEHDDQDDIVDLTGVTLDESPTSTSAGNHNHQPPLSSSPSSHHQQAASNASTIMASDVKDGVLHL
Experiment: co-IP; S2 cell lysates transfected with control DNA, HA::Pbl, or HA::Pbl and Par6::FLAG; 5 ug anti-HA or anti-Flag antibody, Protein A/G magnetic beads; western blot with anti-Flag, anti-aPKC or anti-HA

binding: binds
B1: Endogenous aPKC protein (protein, UniProt A1Z9X0 1-606)
chain: MQKMPSQILNDGSSVSLNSASMNMANTPNSITVKTAYNGQIIITTINKNISYEELCYEIRNICRFPLDQPFTIKWVDEENDPCTISTKMELDEAIRLYEMNFDSQLVIHVFPNVPQAPGLSCDGEDRSIYRRGARRWRKLYRVNGHIFQAKRFNRRAFCAYCQDRIWGLGRQGFKCIQCKLLVHKKCHKLVQKHCTDQPEPLVKERAEESSDPIPVPLPPLPYEAMSGGAEACETHDHAHIVAPPPPEDPLEPGTQRQYSLNDFELIRVIGRGSYAKVLMVELRRTRRIYAMKVIKKALVTDDEDIDWVQTEKHVFETASNHPFLVGLHSCFQTPSRLFFVIEFVRGGDLMYHMQRQRRLPEEHARFYAAEISLALNFLHEKGIIYRDLKLDNVLLDHEGHIKLTDYGMCKEGIRPGDTTSTFCGTPNYIAPEILRGEDYGFSVDWWALGVLLYEMLAGRSPFDLAGASENPDQNTEDYLFQVILEKTIRIPRSLSVRAASVLKGFLNKNPADRLGCHRESAFMDIVSHPFFKNMDWELLERKQVTPPFKPRLDSDRDLANFPPEFTGEAVQLTPDDDHVIDNIDQSEFEGFEYVNPLLMSLEDCV
